Publication PMC10812545, “The Binding of HSPA8 and Mitochondrial ALDH2 Mediates Oxygen-Glucose Deprivation-Induced Fibroblast Senescence” (Antioxidants, 2023)
Results are given in words; binding and its absence hold for the method and conditions named. In cells and extracts the contact can be indirect. These calls come from enrichment with a bait or labelling near it, and not all partners need be listed.

T1: Aldehyde dehydrogenase 2 (ALDH2) (mouse (endogenous in NIH3T3)) (UniProt P47738)
T1 sequence: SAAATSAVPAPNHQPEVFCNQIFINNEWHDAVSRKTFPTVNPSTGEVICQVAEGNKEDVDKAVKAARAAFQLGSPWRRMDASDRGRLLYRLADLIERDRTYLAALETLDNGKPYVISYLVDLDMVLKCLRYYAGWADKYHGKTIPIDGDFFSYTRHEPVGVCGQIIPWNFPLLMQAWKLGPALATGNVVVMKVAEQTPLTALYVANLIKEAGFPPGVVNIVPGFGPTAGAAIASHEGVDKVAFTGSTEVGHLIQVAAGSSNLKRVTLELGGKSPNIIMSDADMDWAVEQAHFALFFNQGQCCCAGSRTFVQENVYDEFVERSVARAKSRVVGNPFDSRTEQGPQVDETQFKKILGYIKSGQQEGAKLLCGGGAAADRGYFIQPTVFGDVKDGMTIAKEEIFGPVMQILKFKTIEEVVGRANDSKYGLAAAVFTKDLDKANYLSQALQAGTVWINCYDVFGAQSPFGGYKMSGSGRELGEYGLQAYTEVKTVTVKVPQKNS


Target: T1, Aldehyde dehydrogenase 2 (ALDH2) (mouse (endogenous in NIH3T3))
Experiment: affinity purification with mass spectrometry; NIH3T3 cells after OGD for 4 h; lysate immunoprecipitated with anti-ALDH2 antibody; LC-MS/MS of the immunoprecipitate

binding	Molecule
binds	Impdh2 (from UniProt P24547 1-514)
binds	Hnmph1 (protein, UniProt O35737 1-449) MMLGAEGGEGFVVKVRGLPWSCSADEVQRFFSDCKIQNGAQGIRFIYTREGRPSGEAFVELESEDEVKLALKKDRETMGHRYVEVFKSNNVEMDWVLKHTGPNSPDTANDGFVRLRGLPFGCSKEEIVQFFSGLEIVPNGITLPVDFQGRSTGEAFVQFASQEIAEKALKKHKERIGHRYIEIFKSSRAEVRTHYDPPRKLMAMQRPGPYDRPGAGRGYNSIGRGAGFERMRRGAYGGGYGGYDDYNGYNDGYGFGSDRFGRDLNYCFSGMSDHRYGDGGSTFQSTTGHCVHMRGLPYRATENDIYNFFSPLNPVRVHIEIGPDGRVTGEADVEFATHEDAVAAMSKDKANMQHRYVELFLNSTAGASGGAYEHRYVELFLNSTAGASGGAYGSQMMGGMGLSNQSSYGGPASQQLSGGYGGGYGGQSSMSGYDQVLQENSSDFQSNIA
